B1: Rho-GTPase-activating protein 8 (SMAC_06590) (protein, UniProt F7W709 1-879)
chain: MPGFADSFWSNDYAAGLGVLFGKLQQGVVENRQLLTIARMRAEAEDVYGQRLSEIAPAVDKIPNGFNRDDGASVRKAYEGVRTEMEDASKNHKKIAQNIRDLVVNPFTRWCDAHESRLQNSQEELQAKIKAHDKQAEVVKKLRSNYFNKCRLVEDLEEENKLAFQDPESAASPKPKQPIPEIKVEPEEEEDDEPFEIGDETYSPDQIKKILAHMLNNIKMGETKVPILGTYQNTSAGTDIVEYFQRHMGTTSVSYAERIGQDLITHGFLRLIGNVGNTFANSSRMFYQWRPQAFKLAGVPEKKAPVNRTFSMPLSNGSEGSDSPVVGAVSEYLANWNIPGVNNGRPNETPSERMRREAREADEKYKAAVQKLDEMRCELEEAIFLHLKFLERCELDRLKAIKTVVLDFSGTISNVIPSLQSTVDNMMLYQETVQPLGDLRYLLENYRTGSFVPKVVTYENYYNKVDEQTFGVDLEARARADKKRVPIIVTTLLTYLDHHYPDLEGDEARRGVWLHEVSLKDTHKLRNKVNNGKPPSLEVFAEFDVATVASLLKLYLLELPDSLVSSHVYEIIRTIYNTTQDSSEDARIPVLQQTLSQLRLTNIATLDACMNHFTRLIELTSADEDYVAKLATTLAPCILRPRTETSLTMEEKHAYRLIRDLFAHKDAIFSELKRMSTLGASASISGNNNRPRAISTDESNRRAHMEERNRLILEKANGGRSRATSPAPGPRAHRRDRSVGGPETRFPISPSGITSPTSSQQHGKRPSLGPVLPKRSSLEVPDEAGSSLSHPADGNLNGAAPAEAGTPKSETADPLADKRSSLVEKRNSLGRSGARISAGRRIPVVASTTASQQQSGSEKENSTGHGHAPVTLTDAPMDY
B2: ATP-binding cassette sub-family f member 2 (SMAC_05099) (protein, UniProt F7W2N6 1-613)
chain: MPPSASKQKRLAEKAAKANKGKPVKEVELDAFGKPVVEDEPATKAEQLDEVKRLAQQMDKHGLSDRVTTGVLASTQASKDVKITSVSLVFHGRVLIKDATLELTLGRRYGLLGENGCGKSTLLKAIAAREYPVPEHVDIYLLNEGAPPSDLGALDWVVTEAKNELARLEMVAEKILEDEGPDSPLLEDLYDHIDKMDPSTFETRASLILTGLGFNKQTIQKKTKDMSGGWRMRVALAKALFVKPTLLLLDDPTAHLDLEACVWLEEYLKKWDRTLVLVSHSEDFLNGVCTSMIDMRLQTLIYYGGNYDTYHKTRAEQETNQMKAYQKQQDEITHIKKFIASAGTYANLVRQAKSRQKILDKMEADGFIQPVKQDRVFSFRFADVEKLPPPVLSFDNVTFSYSGDPKDDLYRHIDLGFDMDSRTALVGPNGVGKSTLLRLMTGKLSPTDGVVQRHTHLKLGLYSQHSAEQLDLTKSALDFVRDKYPDKSQDYQYWRQQLGKYGLSGESQTSLIGTLSDGQKSRIVFALLAIESPNMLLLDEPTNGLDIPTIDSLADAINAFTGGVIVVSHDFRLLDKIAKQILVCENKTIKRWEGSIADYKNYLRKKMISAGAV
B3: Malate synthase (SMAC_05223) (protein, UniProt F7VV16 1-542)
chain: MASVETLLQGVTILGPIEEHQRKILTPQALSFVALLHRSFNQTRKNLLERRKIRQAEIDRGVLPDFLPETKHIRENPTWKGAPPAPGLIDRRVEITGPTDRKMVVNALNSDVYTYMADFEDSSAPTWANMVNGQVNLYDAIRRQIDFKQGQKEYKLRTDRTLPTLIVRPRGWHLEEKHITIDGEPVSGSLFDFGLYFFHNAKELIKRGFGPYFYLPKMESHLEARLWNDAFNLAQDYIGIPRGTIRGTVLIETILAAFEMDEIIYELREHSSGLNCGRWDYIFSTIKKFRNHSSFVLPDRSCVTMTVPFMDAYVKLLIQTCHKRGVHAMGGMAAQIPIKDDKAANDKAMEGVRADKLREARAGHDGTWVAHPALASIALEVFNKHMPTPNQLFNRREDVQIGQQDLLNMNVPGSITEEGIRKNLNIGLGYMEAWIRGVGCVPINYLMEDAATAEVSRSQLWQWVKHGVTTAEGKRVDKGYALKLLKEQTDELAAKAPQGNKFKLAAQYFATQVTGEDYADFLTSLLYNEITSAGNSLPASKL
B4: Woronin body protein HEX1 (protein, UniProt F7VRA2 1-176)
chain: MGYYDEDSHGHADADAQPRATGTTGTGSASQTVTIPCHHIRLGDILILQGRPCQVIRISTSAATGQHRYLGVDLFTKQLHEESSFVSNPAPSVVVQTMLGPVFKQYRVLDMQDGSIVAMTETGDVKQNLPVIDQSSLWNRLQKAFESGRGSVRVLVVSDHGREMAVDMKVVHGSRL
B5: ATP citrate lyase ACL1 (enzyme, UniProt O93988 1-674)
chain: MPSATSTNGANGNGNGNGASASPAPGNLSANDNIRRFAAPSRPLSPLPAHALFNEKTRCFVYGLQPRAVQGMLDFDFICKRSTPSVAGIIYTFGGQFVSKMYWGTSETLLPVYQEVQKAIAKHPDVDVVVNFASSRSVYSSTMELMEHPQIKTIAIIAEGVPERRAREIAYVAKKKGITIIGPATVGGIKPGCFKIGNTGGMMDNIVASKLYRKGSVGYVSKSGGMSNELNNIISQTTDGVYEGVAIGGDRYPGTTFIDHLLRYQADPACKILVLLGEVGGVEEYKVIEAVKQGIITKPIVAWAIGTCASMFKTEVQFGHAGAFANSQLETAATKNKSMREAGFYVPDTFEDMPALLKQVYDKLVADGTIVPAPEPVVPKIPIDYSWAQELGLIRKPAAFISTISDDRGQELLYAGMPISDVFREEIGIGGVMSLLWFRRRLPDYAAKFLEMVLMLTADHGPAVSGAMNTIITTRAGKDLISSLVAGLLTIGSRFGGALDGAAEEFTKAFDKGLSPREFVDTMRKQNKLIPGIGHRVKSRNNPDLRVELVKEYVKAKFPSSKLLDYALAVETVTTSKKDNLILNVDGCIAVCFVDLLRNCGAFSTEEAEDYLSMGVLNGLFVLGRSIGLIAHYLDQKRLRTGLYRHPWDDITYLLPSLQQPGPPGTEGRVEVQI
B6: Histone H2B (SMAC_08323) (protein, UniProt F7VV81 1-137)
chain: MPPKPADKKPASKAPATASKAPEKKDAGKKTAASGDKKKRTKARKETYSSYIYKVLKQVHPDTGISNRAMSILNSFVNDIFERVATEASKLAAYNKKSTISSREIQTSVRLILPGELAKHAVSEGTKAVTKYSSSTK
B7: Topoisomerase II-associated protein pat1 (SMAC_04662) (protein, UniProt F7W229 1-833)
chain: MSFFNFDQSRHNTAAPGFSQAHDPFASLANREEEAEEIDFEDTYDGLGDQLDETDDVFNDDTFGDDTGAPGPVGKDFDFFGQTAKVADVIEEENVRFNRQQPAAKAPQPVAQPSAYTSTAGPSYAGPSFGGPSYNYFPQAPAKPARTGYEKYHEQPIEDLQVDAALWGVAPKKQPPPPAQPAVPSAPSGGRKMLSLEEVEAQMRAQAKAATPSPAPQHQPHQIPHEQAYLYQQQAQNQQQAHFQAGVVEPLYHQPQGHPMTILQRPHSKPATPAQPSSQPPAIQQHQQPVAPQQPTQILQNPNRLSGDAAKIGLPVHPTPPTGPQGHRQQGSLPRQPPMVLHPAQLAQLSEEEKAAYLEQEAKRAKRNHKIFQMSRDNGIMTPQDKNFITRIQLQQLVAATGNPNEHGTDESLAEDFYYQVHSQIQAGHRQHPSQPLNQFAQTYLFQTGSRQGGMRRHNRGPENHMQRMEQQVQRAVEAAKNKPKNKQLVIEGSLGKISFSNAKTPKPLLNIKRNDSASDVKKAPHPINGRDKKSELKALELVYTTLMKMEDHERNMPMAPAEDDQEALNKVFAWSNEGQALNEQLWKALRVQDMEQPGRIHPFMALLCYNKGKKAIPRIFRHTNHEQRITIFTRIVLNLDQLDVVREAQVTTDDIQFNAAMRENIELFSAAIVTTLFTFMNELGLDLVAGILGLVCTRNVDIIAKSRIGASMLTMILSRAELIKHNGGGSEQDWRSWDMTYTQFFNLLEPSLPYIFPGSLATDQDTYVWQLLAAIGIGASPDQQQRLVIAVKDRVMDTVSLAKTLPPALATERLSNVNLFMRSIGLDVELLQ

Amino acid sequences for entries named in this document (tags omitted). A change or cut given only in a name is not applied to a line headed by its entry.
UniProt F7VLP8: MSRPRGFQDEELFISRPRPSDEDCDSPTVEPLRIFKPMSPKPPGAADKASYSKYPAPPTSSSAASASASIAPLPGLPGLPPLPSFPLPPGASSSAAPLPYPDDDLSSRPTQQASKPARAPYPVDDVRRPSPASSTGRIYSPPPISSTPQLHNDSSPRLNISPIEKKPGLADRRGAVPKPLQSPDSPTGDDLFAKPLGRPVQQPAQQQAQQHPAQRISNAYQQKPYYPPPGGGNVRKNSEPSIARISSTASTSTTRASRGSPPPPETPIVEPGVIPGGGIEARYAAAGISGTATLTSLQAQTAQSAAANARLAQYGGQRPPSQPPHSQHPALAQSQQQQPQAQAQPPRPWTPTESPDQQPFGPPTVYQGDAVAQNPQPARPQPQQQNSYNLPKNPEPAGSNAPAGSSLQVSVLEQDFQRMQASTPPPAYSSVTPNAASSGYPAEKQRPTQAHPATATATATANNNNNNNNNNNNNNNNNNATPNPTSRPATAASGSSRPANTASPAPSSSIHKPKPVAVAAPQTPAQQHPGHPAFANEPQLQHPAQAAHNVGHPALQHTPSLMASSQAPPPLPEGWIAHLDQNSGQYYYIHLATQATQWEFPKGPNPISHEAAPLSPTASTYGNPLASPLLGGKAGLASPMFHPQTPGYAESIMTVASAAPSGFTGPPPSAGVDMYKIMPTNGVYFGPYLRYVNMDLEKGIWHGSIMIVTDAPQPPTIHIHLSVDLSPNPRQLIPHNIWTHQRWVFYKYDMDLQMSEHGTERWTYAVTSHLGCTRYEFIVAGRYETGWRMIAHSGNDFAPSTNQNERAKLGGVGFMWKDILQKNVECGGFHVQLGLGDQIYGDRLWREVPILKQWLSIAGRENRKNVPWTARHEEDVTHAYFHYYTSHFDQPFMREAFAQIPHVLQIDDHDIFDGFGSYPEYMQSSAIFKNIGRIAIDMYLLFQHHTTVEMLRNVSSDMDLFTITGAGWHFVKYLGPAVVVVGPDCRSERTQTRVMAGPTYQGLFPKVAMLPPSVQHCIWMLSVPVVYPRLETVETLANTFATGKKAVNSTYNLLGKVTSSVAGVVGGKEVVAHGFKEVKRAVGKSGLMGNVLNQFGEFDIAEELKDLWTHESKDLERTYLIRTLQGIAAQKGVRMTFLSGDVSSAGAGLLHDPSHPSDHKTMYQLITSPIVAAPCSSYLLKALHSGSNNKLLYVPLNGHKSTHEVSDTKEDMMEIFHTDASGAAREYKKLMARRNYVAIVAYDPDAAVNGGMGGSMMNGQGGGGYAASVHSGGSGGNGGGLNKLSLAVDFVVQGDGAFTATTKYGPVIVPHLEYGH
UniProt F7W538: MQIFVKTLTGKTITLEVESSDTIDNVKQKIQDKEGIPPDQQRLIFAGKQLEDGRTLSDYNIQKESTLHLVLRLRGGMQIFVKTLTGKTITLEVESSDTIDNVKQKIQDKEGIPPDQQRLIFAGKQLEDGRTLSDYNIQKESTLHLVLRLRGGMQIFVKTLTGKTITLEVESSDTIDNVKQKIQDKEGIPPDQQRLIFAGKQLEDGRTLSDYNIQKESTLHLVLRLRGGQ
UniProt F7W101: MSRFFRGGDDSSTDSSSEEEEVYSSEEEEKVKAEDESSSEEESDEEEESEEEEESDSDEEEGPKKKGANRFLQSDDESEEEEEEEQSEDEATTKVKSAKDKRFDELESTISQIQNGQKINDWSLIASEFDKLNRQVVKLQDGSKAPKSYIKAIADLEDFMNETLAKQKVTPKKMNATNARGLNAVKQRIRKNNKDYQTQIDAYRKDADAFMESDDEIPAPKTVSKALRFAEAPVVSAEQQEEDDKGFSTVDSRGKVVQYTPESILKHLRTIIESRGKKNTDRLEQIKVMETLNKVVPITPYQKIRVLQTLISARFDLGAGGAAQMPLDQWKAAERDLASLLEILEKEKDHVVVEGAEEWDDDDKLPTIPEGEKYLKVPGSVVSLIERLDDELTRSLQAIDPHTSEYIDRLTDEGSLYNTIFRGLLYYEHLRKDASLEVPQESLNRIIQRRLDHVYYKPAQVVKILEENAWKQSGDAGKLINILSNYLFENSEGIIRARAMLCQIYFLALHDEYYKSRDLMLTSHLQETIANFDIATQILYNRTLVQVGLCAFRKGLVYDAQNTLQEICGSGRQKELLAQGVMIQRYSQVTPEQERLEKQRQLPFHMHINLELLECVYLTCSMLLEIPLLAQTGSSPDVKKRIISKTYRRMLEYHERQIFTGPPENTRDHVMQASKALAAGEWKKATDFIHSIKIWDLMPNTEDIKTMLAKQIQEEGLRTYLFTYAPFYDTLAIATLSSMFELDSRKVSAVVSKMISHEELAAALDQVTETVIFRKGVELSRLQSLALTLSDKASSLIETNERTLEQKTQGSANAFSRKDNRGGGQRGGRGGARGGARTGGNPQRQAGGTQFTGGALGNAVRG
UniProt F7VN81: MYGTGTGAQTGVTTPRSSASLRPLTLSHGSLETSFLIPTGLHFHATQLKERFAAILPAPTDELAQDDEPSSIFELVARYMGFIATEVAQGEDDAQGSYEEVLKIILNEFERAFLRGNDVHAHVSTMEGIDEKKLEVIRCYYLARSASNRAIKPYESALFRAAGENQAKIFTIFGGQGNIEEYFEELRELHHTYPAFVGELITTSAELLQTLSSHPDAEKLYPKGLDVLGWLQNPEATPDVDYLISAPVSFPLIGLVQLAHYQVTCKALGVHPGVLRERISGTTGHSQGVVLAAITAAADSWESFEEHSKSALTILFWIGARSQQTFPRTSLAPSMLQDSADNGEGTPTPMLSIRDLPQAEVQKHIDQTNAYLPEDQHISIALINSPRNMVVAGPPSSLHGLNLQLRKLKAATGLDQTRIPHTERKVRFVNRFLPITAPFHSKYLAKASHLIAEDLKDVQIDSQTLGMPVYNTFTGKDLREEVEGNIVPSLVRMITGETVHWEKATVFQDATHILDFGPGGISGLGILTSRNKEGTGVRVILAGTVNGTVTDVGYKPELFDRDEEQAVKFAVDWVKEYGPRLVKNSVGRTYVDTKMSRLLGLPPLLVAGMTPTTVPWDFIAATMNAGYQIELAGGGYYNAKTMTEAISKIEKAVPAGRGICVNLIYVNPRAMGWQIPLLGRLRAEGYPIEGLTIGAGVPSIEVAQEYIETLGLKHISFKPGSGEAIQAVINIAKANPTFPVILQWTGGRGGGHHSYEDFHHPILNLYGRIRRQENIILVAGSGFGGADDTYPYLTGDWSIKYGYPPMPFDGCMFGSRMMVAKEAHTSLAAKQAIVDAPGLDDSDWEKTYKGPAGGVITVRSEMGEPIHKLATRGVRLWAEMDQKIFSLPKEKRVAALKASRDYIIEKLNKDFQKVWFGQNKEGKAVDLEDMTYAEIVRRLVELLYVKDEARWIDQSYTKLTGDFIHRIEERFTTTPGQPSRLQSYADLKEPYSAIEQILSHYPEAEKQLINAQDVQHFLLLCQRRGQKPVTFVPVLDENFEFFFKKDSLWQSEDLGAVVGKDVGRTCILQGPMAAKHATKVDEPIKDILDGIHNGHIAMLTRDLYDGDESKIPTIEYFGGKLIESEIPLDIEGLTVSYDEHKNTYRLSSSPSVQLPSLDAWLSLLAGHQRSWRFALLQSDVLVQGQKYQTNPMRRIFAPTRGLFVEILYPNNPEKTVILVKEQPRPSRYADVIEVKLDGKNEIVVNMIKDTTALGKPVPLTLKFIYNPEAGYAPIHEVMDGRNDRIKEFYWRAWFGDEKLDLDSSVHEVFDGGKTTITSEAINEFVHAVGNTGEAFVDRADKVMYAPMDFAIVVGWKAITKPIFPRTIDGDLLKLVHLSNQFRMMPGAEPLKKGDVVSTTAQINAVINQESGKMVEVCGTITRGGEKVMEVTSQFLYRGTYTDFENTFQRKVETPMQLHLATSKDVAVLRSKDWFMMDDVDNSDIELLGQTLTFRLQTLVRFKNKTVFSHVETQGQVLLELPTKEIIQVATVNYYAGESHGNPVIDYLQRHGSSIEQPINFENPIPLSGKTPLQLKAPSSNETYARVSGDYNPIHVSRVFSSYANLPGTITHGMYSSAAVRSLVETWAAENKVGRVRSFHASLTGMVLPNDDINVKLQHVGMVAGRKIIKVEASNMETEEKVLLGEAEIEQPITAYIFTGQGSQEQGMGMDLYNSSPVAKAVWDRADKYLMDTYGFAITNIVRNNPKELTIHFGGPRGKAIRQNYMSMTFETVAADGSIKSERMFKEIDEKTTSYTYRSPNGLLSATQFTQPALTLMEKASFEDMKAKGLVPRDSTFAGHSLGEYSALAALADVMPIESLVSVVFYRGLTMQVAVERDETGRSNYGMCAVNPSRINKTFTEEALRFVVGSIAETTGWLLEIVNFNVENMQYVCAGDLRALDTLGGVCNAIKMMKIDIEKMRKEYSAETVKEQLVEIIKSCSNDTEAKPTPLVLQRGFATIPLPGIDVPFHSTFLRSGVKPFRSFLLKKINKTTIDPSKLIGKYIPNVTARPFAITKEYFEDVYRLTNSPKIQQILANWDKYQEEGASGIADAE
UniProt F7VX13: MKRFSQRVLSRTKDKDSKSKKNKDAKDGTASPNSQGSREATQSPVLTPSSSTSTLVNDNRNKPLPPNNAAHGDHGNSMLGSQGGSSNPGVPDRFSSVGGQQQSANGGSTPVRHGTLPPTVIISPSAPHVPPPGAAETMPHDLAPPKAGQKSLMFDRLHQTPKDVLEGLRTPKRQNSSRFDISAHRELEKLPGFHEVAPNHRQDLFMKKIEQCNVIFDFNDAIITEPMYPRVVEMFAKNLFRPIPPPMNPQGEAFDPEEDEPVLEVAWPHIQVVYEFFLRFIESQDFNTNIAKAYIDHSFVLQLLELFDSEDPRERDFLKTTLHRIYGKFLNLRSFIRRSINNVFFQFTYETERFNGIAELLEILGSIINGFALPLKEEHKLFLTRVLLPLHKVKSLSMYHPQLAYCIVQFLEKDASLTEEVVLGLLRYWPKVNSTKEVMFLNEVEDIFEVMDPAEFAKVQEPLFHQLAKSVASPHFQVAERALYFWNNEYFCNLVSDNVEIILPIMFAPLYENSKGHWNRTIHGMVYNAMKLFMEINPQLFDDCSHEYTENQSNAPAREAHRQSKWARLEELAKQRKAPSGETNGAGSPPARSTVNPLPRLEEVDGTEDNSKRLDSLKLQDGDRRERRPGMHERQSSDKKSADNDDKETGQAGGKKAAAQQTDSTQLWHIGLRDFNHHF

Results are given in words; binding and its absence hold for the method and conditions named. Binding seen in cells or lysates may run through a third protein. A yes stands for co-enrichment or nearness to the bait. Other partners may have been found. For some assays here: A no says only that the protein was not detected with the bait. For some assays here: Sequences can lack the tags named with a protein.

For one experiment, the target named is PRO40-FLAG (Sordaria macrospora) (UniProt F7VLP8). As to the kind of experiment: affinity purification with mass spectrometry; FLAG-AP with MudPIT of PRO40-FLAG from strain T184.2NS11 (Δpro40::pro40-3xFLAG) on anti-FLAG M2 gel, 250 mM NaCl extraction, 150 mM NaCl washes, 3xFLAG peptide elution; wildtype extract as control.
With B1, the binding result is “binds”.

With B2, the binding entry is “binds”. Still for that read-out and setting: the result for B3 reads “binds”; that for B4, “no binding”; that for B5, “binds”. On to B6, for which the binding entry was “binds”.

Take B7: the binding entry was “binds”.

For a further experiment the target is unchanged. Described as above. This is another data set of the same source.
On to “Polyubiquitin (SMAC_07925) (from UniProt F7W538)”, for which the binding entry was “binds”. On the same count and under the same terms, the result for “Eukaryotic translation initiation factor 3 (SMAC_02110) (from UniProt F7W101)” reads “binds”; that for “Fatty acid synthase beta subunit dehydratase (SMAC_00840) (from UniProt F7VN81 1-2092)”, “binds”; that for “putative regulatory subunit of protein phosphatase PP2A, RTS1 (from UniProt F7VX13)”, “binds”.

(Values after paper PMC4154660.)
